The other results are listed elsewhere or left out.
Compound: Cc1cc(ccc1-c1ccccc1)C(=O)N1CCCN(CC1)C(=O)CCl [compound 10]
Assay: probe-labelled cysteine peptide fold change vs DMSO (competition) (log2 fold change); higher = less target engagement (more negative = stronger competition)
Conditions: THP-1, incubation time: 4 h
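Further: competitive profiling in live THP-1 cells: cysteine peptides tagged with an iodoacetamide desthiobiotin (IA-DTB) probe, intensity after compound treatment relative to DMSO-treated cells.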

By UniProt entry, the sequences of proteins in these tests, tags left out. Where a name states a change or a piece, a line headed by the entry shows the natural chain unless it says otherwise.
UniProt P23921: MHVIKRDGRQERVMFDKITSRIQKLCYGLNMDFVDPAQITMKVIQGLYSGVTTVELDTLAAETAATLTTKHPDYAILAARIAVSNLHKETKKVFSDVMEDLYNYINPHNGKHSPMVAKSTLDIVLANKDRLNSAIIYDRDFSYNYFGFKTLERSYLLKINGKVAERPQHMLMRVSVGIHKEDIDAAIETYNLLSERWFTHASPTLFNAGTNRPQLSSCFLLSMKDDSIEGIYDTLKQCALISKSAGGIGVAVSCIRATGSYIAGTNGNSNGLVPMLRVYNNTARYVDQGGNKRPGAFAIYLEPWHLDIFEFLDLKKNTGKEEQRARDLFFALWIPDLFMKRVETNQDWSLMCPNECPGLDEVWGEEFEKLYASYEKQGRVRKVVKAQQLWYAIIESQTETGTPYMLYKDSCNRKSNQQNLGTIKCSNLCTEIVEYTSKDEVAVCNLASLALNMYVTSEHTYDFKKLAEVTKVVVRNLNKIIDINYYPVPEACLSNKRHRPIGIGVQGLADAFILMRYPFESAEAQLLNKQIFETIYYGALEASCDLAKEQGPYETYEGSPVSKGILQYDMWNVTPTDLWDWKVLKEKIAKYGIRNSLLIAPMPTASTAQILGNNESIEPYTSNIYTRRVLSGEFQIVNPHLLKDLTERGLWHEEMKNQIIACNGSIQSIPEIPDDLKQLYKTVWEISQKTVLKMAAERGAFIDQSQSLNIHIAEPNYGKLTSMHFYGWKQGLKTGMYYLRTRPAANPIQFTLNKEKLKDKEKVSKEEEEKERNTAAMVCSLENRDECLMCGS
UniProt Q8WWV3: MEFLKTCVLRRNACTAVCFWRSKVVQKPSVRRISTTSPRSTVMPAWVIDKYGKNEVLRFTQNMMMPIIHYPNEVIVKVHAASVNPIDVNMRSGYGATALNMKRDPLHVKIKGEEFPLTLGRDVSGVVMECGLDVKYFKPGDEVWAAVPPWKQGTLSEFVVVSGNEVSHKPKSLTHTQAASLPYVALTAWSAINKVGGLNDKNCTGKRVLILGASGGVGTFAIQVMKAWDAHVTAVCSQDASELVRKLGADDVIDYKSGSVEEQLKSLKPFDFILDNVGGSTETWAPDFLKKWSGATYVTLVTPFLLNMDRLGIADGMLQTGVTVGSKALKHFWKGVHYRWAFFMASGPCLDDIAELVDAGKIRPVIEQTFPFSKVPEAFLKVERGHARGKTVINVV
UniProt Q15418, whole entry, looked up: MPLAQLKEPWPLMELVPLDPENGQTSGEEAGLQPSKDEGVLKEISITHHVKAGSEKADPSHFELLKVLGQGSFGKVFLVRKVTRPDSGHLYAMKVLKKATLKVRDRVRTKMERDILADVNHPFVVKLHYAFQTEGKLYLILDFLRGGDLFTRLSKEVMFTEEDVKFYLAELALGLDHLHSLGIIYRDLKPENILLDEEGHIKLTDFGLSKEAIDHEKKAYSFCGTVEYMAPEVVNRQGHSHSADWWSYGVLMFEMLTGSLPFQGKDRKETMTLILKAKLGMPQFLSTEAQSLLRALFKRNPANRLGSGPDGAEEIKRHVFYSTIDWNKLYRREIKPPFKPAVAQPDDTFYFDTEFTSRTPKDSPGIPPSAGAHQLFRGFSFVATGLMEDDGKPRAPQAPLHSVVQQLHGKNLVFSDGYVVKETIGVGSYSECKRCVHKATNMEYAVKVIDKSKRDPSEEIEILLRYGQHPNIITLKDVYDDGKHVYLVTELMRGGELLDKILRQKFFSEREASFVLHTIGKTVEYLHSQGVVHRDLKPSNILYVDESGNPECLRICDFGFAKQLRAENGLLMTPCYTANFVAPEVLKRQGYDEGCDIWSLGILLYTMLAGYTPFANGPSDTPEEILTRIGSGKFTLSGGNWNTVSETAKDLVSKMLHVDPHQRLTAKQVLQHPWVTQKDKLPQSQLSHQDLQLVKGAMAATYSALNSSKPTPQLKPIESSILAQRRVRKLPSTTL
UniProt P31949: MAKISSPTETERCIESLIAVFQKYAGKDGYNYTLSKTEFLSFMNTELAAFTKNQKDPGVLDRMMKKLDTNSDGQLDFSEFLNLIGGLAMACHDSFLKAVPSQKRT
UniProt P05109: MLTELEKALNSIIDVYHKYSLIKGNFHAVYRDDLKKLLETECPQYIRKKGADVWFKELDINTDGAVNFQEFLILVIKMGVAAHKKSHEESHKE
UniProt Q9Y224: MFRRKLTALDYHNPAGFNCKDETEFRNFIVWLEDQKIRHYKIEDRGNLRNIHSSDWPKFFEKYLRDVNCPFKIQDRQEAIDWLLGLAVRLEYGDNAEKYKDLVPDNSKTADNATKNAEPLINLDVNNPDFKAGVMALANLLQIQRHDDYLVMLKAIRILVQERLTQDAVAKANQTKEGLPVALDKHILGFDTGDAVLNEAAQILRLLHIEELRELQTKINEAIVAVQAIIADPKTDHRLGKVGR
UniProt Q9H714: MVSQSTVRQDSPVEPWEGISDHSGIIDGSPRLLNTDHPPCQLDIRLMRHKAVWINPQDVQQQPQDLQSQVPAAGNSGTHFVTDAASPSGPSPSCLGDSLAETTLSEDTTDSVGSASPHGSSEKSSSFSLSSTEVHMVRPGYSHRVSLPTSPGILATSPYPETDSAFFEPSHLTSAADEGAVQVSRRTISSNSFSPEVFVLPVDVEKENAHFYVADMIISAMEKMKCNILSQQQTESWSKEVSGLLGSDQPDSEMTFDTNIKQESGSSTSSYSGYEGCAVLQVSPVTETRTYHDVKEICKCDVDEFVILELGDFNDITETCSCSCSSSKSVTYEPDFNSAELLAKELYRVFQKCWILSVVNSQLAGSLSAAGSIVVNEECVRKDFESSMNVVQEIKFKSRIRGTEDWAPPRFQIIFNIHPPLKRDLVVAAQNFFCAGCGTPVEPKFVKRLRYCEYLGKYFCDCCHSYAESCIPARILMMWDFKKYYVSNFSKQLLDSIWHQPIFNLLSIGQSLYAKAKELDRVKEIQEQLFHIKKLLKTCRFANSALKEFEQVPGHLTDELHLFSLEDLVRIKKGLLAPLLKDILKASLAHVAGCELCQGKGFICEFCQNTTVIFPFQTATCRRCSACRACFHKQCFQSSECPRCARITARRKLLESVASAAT
UniProt Q5VWQ0: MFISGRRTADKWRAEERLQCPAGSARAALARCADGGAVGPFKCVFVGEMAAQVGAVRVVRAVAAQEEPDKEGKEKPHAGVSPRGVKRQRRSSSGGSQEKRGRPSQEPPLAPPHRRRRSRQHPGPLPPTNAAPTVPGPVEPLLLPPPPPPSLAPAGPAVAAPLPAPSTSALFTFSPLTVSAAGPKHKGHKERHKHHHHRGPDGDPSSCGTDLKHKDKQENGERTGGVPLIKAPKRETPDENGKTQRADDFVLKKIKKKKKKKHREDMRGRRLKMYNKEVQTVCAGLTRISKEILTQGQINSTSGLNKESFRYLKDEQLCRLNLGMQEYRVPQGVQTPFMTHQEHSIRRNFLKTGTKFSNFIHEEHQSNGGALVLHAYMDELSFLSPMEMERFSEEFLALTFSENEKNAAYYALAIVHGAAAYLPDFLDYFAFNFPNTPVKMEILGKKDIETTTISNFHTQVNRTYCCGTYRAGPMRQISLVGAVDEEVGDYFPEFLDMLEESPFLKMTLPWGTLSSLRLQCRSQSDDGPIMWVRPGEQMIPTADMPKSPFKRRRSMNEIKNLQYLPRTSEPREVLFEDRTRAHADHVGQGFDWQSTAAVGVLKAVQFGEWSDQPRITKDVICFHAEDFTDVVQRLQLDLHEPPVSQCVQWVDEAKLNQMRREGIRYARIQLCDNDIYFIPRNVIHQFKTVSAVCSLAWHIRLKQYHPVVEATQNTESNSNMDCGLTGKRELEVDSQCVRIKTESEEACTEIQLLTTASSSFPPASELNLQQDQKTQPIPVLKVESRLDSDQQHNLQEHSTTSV
UniProt Q9Y3Z3: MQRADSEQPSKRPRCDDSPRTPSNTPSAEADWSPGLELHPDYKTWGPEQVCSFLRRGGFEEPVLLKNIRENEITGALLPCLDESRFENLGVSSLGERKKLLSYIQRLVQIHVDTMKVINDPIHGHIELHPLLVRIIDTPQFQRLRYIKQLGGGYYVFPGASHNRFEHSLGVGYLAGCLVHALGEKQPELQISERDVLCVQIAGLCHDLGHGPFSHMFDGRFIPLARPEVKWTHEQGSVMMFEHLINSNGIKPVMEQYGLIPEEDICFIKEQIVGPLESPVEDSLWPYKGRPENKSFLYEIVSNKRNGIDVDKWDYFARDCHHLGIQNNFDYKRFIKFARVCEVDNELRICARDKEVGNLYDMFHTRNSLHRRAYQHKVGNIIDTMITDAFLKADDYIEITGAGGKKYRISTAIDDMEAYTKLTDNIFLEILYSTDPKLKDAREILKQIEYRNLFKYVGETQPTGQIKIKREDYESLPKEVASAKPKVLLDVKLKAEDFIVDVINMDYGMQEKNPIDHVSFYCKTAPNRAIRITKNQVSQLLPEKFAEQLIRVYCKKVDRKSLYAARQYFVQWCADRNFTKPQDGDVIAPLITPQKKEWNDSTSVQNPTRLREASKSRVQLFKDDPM
UniProt Q9Y230, whole entry, looked up: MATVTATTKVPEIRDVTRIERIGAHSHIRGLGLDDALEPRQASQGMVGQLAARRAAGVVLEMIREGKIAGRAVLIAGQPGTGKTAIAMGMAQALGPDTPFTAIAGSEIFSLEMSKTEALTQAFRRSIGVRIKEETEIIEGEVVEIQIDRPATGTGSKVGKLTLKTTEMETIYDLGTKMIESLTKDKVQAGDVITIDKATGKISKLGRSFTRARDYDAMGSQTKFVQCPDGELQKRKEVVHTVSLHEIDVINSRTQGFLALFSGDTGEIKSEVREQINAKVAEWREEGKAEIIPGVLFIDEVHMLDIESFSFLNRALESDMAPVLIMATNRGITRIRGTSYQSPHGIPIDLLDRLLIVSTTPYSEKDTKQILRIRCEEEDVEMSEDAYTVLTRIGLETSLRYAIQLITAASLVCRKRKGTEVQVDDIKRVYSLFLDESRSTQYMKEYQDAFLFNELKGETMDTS
UniProt Q5JTH9: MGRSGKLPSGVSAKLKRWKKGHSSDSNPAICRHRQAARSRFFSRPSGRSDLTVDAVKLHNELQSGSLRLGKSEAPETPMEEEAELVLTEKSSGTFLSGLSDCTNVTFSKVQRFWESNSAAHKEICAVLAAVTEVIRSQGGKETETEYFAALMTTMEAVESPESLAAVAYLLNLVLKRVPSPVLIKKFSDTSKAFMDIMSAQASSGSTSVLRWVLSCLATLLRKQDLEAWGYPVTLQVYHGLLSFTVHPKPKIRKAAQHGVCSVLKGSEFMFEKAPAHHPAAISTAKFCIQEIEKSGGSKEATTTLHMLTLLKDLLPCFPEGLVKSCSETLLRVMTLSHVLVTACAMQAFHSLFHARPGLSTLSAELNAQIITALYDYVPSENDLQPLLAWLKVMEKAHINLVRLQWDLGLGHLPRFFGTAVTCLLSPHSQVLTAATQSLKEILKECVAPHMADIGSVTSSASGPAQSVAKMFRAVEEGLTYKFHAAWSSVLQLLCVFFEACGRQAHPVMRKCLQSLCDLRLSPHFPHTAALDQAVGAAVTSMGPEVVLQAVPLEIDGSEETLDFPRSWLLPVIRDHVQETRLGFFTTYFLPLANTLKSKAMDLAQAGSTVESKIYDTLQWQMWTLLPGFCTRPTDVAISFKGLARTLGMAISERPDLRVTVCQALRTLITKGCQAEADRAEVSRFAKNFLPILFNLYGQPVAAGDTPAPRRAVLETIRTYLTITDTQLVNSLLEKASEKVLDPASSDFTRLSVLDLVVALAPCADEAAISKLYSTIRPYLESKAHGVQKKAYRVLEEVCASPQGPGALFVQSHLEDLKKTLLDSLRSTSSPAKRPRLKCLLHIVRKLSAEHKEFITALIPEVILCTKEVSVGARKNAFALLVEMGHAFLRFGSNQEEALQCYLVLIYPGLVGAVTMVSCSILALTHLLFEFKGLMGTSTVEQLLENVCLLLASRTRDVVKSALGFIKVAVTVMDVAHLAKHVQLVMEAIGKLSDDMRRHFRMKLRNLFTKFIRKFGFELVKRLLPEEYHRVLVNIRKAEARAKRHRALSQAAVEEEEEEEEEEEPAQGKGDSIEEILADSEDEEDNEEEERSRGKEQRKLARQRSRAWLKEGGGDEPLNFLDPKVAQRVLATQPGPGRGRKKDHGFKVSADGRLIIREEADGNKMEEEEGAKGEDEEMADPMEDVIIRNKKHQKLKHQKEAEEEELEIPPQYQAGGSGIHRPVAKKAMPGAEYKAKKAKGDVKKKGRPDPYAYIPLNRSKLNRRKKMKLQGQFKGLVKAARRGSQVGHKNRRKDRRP
UniProt Q7LG56, whole entry, looked up: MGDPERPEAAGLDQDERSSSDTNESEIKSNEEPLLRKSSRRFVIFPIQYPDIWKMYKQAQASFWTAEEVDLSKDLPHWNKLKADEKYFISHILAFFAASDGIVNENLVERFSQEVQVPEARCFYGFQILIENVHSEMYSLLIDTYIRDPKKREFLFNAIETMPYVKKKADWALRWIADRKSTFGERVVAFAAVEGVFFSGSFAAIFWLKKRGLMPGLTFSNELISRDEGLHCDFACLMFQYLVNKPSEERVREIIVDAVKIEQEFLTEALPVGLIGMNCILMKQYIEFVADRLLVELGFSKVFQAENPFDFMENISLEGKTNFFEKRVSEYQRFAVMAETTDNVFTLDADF

## RPS17_P08708_35_VCEEIAIIPSKK (UniProt P08708)
10 µM
  probe-labelled cysteine peptide fold change: -0.135
50 µM
  probe-labelled cysteine peptide fold change: -0.205

## RTTN_Q86VV8_2128_SSPLLPLLIFHNVCFSPANKPK (UniProt Q86VV8)
10 µM
  probe-labelled cysteine peptide fold change: -0.219
50 µM
  probe-labelled cysteine peptide fold change: -0.0186

## RRP8_O43159_317_QRPASLVVADFGCGDCR (UniProt O43159)
10 µM
  probe-labelled cysteine peptide fold change: 0.172
50 µM
  probe-labelled cysteine peptide fold change: -0.12

## RPS12_P25398_106_KVVGCSCVVVK (UniProt P25398)
10 µM
  probe-labelled cysteine peptide fold change: -0.0356
50 µM
  probe-labelled cysteine peptide fold change: -0.416

## SACM1L_Q9NTJ5_23_FYVEACDDGADDVLTIDR (UniProt Q9NTJ5)
10 µM
  probe-labelled cysteine peptide fold change: -0.19
50 µM
  probe-labelled cysteine peptide fold change: 0.242

## RPS20_P60866_36_VCADLIR (UniProt P60866)
10 µM
  probe-labelled cysteine peptide fold change: -0.099
50 µM
  probe-labelled cysteine peptide fold change: -0.0199

## RRM1_P23921_492_IIDINYYPVPEACLSNKR (UniProt P23921)
10 µM
  probe-labelled cysteine peptide fold change: -0.236
50 µM
  probe-labelled cysteine peptide fold change: -0.801

## RTN4IP1_Q8WWV3_130_DVSGVVMECGLDVK (UniProt Q8WWV3)
10 µM
  probe-labelled cysteine peptide fold change: 0.0949
50 µM
  probe-labelled cysteine peptide fold change: 0.461

## RTFDC1_Q9BY42_262_AGKPPCGATK (UniProt Q9BY42)
10 µM
  probe-labelled cysteine peptide fold change: -0.0272
50 µM
  probe-labelled cysteine peptide fold change: -0.33

## RRP1B_Q14684_628_VMSNLVEHNGVLESEAGQPQALGSSGTCSSLKK (UniProt Q14684)
10 µM
  probe-labelled cysteine peptide fold change: 0.0694
50 µM
  probe-labelled cysteine peptide fold change: -0.589

## RPS6KA1_Q15418-4_17_DLVPCPR (UniProt Q15418)
10 µM
  probe-labelled cysteine peptide fold change: -0.379
50 µM
  probe-labelled cysteine peptide fold change: -0.489

## SAMD9_Q5K651_420_CHPDQTK (UniProt Q5K651)
10 µM
  probe-labelled cysteine peptide fold change: 0.0227
50 µM
  probe-labelled cysteine peptide fold change: -0.0214

## S100A11_P31949_13_CIESLIAVFQK (UniProt P31949)
10 µM
  probe-labelled cysteine peptide fold change: -0.0178
50 µM
  probe-labelled cysteine peptide fold change: -0.15

## RPS14_P62263_31_KEEQVISLGPQVAEGENVFGVCHIFASFNDTFVHVTDLSGK (UniProt P62263)
10 µM
  probe-labelled cysteine peptide fold change: 0.227
50 µM
  probe-labelled cysteine peptide fold change: 0.269

## S100A8_P05109_42_LLETECPQYIR (UniProt P05109)
10 µM
  probe-labelled cysteine peptide fold change: -0.163
50 µM
  probe-labelled cysteine peptide fold change: -0.186

## RRBP1_Q9P2E9_933_CEELSGLHGQLQEAR (UniProt Q9P2E9)
10 µM
  probe-labelled cysteine peptide fold change: 0.567
50 µM
  probe-labelled cysteine peptide fold change: 0.539

## RTRAF_Q9Y224_19_LTALDYHNPAGFNCK (UniProt Q9Y224)
10 µM
  probe-labelled cysteine peptide fold change: 0.338
50 µM
  probe-labelled cysteine peptide fold change: 0.446

## RPS12_P25398_50_RQAHLCVLASNCDEPMYVK (UniProt P25398)
10 µM
  probe-labelled cysteine peptide fold change: 0.13
50 µM
  probe-labelled cysteine peptide fold change: -0.199

## RSL24D1_Q9UHA3_9_CYFCSGPIYPGHGMMFVR (UniProt Q9UHA3)
10 µM
  probe-labelled cysteine peptide fold change: 0.00222
50 µM
  probe-labelled cysteine peptide fold change: 0.0233

## RUBCNL_Q9H714_437_DLVVAAQNFFCAGCGTPVEPK (UniProt Q9H714)
10 µM
  probe-labelled cysteine peptide fold change: 0.191
50 µM
  probe-labelled cysteine peptide fold change: 0.168

## RSBN1_Q5VWQ0_282_EVQTVCAGLTR (UniProt Q5VWQ0)
10 µM
  probe-labelled cysteine peptide fold change: -0.255
50 µM
  probe-labelled cysteine peptide fold change: -0.509

## RPS11_P62280_131_DVQIGDIVTVGECRPLSK (UniProt P62280)
10 µM
  probe-labelled cysteine peptide fold change: 0.00424
50 µM
  probe-labelled cysteine peptide fold change: -0.0975

## SACS_Q9NZJ4_2182_SDHVAACLR (UniProt Q9NZJ4)
10 µM
  probe-labelled cysteine peptide fold change: 0.189
50 µM
  probe-labelled cysteine peptide fold change: -0.223

## SAMHD1_Q9Y3Z3_15_CDDSPR (UniProt Q9Y3Z3)
10 µM
  probe-labelled cysteine peptide fold change: -0.0354
50 µM
  probe-labelled cysteine peptide fold change: -0.0447

## RPS27A_P62979_126_ECPSDECGAGVFMASHFDR (UniProt P62979)
10 µM
  probe-labelled cysteine peptide fold change: -0.0394
50 µM
  probe-labelled cysteine peptide fold change: -0.0668

## RUVBL2_Q9Y230_227_FVQCPDGELQK (UniProt Q9Y230)
10 µM
  probe-labelled cysteine peptide fold change: -0.053
50 µM
  probe-labelled cysteine peptide fold change: 0.0778

## RPS11_P62280_131_DVQIGDIVTVGECRPLSKTVR (UniProt P62280)
10 µM
  probe-labelled cysteine peptide fold change: 0.333
50 µM
  probe-labelled cysteine peptide fold change: 0.144

## RTCB_Q9Y3I0_255_GQVCVMIHSGSR (UniProt Q9Y3I0)
10 µM
  probe-labelled cysteine peptide fold change: 0.156
50 µM
  probe-labelled cysteine peptide fold change: -0.224

## RRP12_Q5JTH9_446_ECVAPHMADIGSVTSSASGPAQSVAK (UniProt Q5JTH9)
10 µM
  probe-labelled cysteine peptide fold change: 0.0188
50 µM
  probe-labelled cysteine peptide fold change: 0.0613

## RPS4X_P62701_181_FDTGNLCMVTGGANLGR (UniProt P62701)
10 µM
  probe-labelled cysteine peptide fold change: -0.0033
50 µM
  probe-labelled cysteine peptide fold change: -0.0251

## RUVBL1_Q9Y265_141_EVYEGEVTELTPCETENPMGGYGK (UniProt Q9Y265)
10 µM
  probe-labelled cysteine peptide fold change: -0.117
50 µM
  probe-labelled cysteine peptide fold change: 0.00274

## RUFY1_Q96T51_184_LCPEASDIATSVR (UniProt Q96T51)
10 µM
  probe-labelled cysteine peptide fold change: 0.0175
50 µM
  probe-labelled cysteine peptide fold change: 0.142

## RPS2_P15880_182_PHTVPCK (UniProt P15880)
10 µM
  probe-labelled cysteine peptide fold change: -0.231
50 µM
  probe-labelled cysteine peptide fold change: 0.0272

## RPS5_P46782_66_KAQCPIVER (UniProt P46782)
10 µM
  probe-labelled cysteine peptide fold change: -0.174
50 µM
  probe-labelled cysteine peptide fold change: -0.129

## RXRA_P19793_404_VYASLEAYCK (UniProt P19793)
10 µM
  probe-labelled cysteine peptide fold change: -0.0874
50 µM
  probe-labelled cysteine peptide fold change: -0.0238

## RRM1_P23921_662_NQIIACNGSIQSIPEIPDDLK (UniProt P23921)
10 µM
  probe-labelled cysteine peptide fold change: -0.112
50 µM
  probe-labelled cysteine peptide fold change: 0.0699

## SAMHD1_Q9Y3Z3_80_NIRENEITGALLPCLDESR (UniProt Q9Y3Z3)
10 µM
  probe-labelled cysteine peptide fold change: -0.084
50 µM
  probe-labelled cysteine peptide fold change: 0.0813

## RRM2B_Q7LG56_232+236_DEGLHCDFACLMFQYLVNKPSEER (UniProt Q7LG56)
10 µM
  probe-labelled cysteine peptide fold change: 0.0726
50 µM
  probe-labelled cysteine peptide fold change: -0.186

## RPS29_P62273_39_KYGLNMCR (UniProt P62273)
10 µM
  probe-labelled cysteine peptide fold change: -0.0348
50 µM
  probe-labelled cysteine peptide fold change: -0.628

## RRM1_P23921_492_IIDINYYPVPEACLSNK (UniProt P23921)
10 µM
  probe-labelled cysteine peptide fold change: 0.0914
50 µM
  probe-labelled cysteine peptide fold change: -0.0623

## RRM1_P23921_26_LCYGLNMDFVDPAQITMK (UniProt P23921)
10 µM
  probe-labelled cysteine peptide fold change: 0.0208
50 µM
  probe-labelled cysteine peptide fold change: 0.0852
